Assay results: PMC8536758
Results are given in words; binding and its absence hold for the method and conditions named. Binding seen in cells or lysates may run through a third protein. Some results given as binding are weak or reduced against the parent protein; the word gives no strength.

Amino acid sequences for entries named in this document (tags omitted). A change or cut given only in a name is not applied to a line headed by its entry. Chains listed by the source or under a name are the forms on record and can include a tag or linker.
3 × FLAG-tagged ZSWIM8, stably expressed in C2C12 cells (A7E2V4, form named): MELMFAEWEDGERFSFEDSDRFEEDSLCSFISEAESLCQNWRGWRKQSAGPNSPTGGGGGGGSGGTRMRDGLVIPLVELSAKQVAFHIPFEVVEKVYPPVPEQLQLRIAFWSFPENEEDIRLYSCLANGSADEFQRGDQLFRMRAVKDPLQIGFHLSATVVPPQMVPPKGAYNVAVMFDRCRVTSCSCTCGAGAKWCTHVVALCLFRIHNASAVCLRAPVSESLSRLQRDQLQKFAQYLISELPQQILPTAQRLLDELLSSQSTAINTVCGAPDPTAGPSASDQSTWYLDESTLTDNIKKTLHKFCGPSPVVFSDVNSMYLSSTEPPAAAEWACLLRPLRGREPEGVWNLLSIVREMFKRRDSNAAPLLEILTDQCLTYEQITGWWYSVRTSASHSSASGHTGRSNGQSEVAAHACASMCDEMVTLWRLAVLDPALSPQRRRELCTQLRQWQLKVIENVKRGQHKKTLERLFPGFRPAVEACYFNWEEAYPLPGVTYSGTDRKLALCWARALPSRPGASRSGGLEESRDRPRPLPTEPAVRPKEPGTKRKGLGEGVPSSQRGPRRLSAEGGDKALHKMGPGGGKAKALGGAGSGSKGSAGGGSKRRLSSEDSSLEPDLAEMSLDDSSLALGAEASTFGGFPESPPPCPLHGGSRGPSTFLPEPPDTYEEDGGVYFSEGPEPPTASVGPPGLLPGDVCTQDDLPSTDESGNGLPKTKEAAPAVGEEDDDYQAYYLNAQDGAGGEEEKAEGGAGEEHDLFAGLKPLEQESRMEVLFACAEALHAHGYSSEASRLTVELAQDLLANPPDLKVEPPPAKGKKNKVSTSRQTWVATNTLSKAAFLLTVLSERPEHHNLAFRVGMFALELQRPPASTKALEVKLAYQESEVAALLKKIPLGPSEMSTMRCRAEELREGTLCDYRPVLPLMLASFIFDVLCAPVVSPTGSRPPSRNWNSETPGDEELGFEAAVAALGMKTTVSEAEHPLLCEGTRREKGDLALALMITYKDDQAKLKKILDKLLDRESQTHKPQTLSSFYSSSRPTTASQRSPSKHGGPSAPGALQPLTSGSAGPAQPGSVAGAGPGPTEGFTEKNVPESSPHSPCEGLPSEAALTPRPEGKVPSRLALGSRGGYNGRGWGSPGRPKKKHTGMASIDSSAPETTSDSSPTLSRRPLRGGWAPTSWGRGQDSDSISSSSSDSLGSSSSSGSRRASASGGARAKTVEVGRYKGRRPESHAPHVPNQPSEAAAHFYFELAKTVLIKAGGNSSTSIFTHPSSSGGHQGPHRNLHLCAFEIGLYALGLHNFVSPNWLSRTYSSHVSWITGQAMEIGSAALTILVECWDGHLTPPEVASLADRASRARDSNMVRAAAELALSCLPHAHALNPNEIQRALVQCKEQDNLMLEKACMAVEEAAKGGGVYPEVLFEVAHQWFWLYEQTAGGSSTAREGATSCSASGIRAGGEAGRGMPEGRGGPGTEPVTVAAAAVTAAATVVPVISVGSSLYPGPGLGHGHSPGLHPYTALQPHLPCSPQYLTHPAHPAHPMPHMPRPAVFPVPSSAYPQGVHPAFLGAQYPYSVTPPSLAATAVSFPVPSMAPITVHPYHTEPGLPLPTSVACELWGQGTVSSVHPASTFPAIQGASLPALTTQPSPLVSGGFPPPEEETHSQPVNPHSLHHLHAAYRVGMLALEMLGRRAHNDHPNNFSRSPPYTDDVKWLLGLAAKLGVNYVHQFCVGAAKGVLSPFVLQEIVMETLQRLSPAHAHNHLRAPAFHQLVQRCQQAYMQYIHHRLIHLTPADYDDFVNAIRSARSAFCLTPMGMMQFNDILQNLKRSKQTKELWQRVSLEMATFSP
UniProt Q3UHH1: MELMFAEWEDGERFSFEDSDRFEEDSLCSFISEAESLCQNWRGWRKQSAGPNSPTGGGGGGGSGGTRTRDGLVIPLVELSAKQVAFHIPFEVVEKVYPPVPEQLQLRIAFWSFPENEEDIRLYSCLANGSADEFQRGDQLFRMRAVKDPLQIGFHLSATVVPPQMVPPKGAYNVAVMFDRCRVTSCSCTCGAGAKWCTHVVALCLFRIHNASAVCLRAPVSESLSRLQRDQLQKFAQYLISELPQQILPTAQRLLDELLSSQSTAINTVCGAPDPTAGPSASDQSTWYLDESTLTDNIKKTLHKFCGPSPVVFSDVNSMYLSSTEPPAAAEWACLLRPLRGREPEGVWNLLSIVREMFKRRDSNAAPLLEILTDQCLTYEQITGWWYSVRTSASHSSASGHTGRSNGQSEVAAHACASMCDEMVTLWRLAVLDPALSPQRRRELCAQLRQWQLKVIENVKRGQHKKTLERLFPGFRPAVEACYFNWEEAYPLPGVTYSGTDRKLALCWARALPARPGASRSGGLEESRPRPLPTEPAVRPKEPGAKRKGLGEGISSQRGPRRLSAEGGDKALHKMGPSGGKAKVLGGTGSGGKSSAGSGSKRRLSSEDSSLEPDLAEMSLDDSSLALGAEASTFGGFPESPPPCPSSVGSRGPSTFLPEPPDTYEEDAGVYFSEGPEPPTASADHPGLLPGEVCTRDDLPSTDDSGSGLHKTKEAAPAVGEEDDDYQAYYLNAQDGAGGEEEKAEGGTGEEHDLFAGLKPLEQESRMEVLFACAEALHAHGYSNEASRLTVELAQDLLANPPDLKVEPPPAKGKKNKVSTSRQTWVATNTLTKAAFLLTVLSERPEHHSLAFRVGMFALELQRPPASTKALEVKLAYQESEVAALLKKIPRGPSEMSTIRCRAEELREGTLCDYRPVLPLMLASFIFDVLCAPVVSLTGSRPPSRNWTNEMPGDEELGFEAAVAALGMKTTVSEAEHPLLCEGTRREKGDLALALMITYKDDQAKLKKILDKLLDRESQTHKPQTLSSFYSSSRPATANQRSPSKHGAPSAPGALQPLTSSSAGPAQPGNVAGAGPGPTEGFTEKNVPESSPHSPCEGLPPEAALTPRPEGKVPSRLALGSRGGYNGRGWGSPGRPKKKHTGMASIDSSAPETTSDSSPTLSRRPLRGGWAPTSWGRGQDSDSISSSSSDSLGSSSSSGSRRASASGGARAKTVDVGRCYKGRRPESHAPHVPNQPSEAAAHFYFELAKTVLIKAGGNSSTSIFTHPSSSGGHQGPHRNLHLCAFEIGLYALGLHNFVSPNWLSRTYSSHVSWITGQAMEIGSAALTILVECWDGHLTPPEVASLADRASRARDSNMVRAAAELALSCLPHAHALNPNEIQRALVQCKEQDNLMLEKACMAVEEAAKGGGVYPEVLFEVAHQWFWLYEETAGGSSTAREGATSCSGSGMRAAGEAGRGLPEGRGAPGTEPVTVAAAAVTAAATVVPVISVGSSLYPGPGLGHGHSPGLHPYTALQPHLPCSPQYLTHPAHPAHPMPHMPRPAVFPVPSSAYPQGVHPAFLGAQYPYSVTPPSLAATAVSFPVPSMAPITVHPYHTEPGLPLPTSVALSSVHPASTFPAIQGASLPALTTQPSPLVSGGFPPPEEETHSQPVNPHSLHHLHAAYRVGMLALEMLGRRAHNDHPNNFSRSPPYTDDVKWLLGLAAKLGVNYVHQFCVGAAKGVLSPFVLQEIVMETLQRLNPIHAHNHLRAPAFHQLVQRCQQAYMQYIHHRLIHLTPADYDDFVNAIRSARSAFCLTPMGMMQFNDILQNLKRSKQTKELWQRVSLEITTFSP
UniProt Q9D4H8: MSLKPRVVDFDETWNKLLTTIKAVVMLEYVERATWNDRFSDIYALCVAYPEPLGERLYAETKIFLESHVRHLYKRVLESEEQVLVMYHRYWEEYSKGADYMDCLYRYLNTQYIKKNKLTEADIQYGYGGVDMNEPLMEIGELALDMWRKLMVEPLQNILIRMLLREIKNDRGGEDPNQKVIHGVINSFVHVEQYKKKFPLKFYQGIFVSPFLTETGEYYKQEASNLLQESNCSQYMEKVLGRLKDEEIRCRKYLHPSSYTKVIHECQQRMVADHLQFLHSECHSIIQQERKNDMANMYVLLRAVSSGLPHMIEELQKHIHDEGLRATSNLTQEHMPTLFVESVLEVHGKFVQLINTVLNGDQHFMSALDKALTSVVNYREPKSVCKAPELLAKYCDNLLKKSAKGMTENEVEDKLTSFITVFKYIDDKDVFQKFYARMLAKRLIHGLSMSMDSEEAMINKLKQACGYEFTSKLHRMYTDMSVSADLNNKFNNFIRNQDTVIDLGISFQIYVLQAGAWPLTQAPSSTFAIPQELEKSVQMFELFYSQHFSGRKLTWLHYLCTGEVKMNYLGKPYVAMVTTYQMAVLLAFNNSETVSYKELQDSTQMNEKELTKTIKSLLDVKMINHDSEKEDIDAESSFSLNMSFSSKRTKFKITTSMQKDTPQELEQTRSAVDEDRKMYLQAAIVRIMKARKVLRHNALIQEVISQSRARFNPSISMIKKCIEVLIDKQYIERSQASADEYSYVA

T1: endogenous Cdon of C2C12 cells (mouse (endogenous in C2C12)) (UniProt Q32MD9)
T1 sequence: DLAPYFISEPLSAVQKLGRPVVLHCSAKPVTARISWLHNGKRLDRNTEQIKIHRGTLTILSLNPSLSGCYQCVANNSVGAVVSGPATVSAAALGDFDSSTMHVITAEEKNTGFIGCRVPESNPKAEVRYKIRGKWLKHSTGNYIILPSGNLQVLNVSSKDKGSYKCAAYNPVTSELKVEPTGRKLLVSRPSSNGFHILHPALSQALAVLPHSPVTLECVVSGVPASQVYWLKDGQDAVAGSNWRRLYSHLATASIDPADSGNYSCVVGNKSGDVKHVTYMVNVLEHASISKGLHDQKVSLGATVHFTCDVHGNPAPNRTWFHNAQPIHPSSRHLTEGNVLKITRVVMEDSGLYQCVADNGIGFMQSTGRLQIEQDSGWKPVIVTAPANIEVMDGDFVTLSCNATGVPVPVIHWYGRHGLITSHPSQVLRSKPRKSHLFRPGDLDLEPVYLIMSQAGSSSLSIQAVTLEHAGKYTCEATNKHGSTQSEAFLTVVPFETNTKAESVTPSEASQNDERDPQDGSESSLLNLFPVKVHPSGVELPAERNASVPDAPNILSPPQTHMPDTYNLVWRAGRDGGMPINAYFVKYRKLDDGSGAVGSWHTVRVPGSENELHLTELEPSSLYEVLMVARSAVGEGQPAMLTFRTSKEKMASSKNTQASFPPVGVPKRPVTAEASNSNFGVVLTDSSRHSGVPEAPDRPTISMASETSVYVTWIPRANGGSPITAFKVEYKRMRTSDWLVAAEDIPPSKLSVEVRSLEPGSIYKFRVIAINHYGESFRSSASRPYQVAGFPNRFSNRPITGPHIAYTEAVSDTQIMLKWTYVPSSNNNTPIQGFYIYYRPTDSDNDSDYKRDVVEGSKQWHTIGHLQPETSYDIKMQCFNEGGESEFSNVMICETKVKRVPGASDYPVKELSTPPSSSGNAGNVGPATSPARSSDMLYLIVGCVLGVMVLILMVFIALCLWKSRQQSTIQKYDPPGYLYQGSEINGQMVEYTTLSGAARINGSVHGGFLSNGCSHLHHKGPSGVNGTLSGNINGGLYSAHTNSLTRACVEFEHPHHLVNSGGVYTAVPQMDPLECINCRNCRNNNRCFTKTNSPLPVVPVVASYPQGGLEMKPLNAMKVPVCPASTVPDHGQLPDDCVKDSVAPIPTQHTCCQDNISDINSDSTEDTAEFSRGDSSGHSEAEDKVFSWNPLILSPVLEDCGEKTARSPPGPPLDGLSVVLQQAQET


How the values were obtained:
[1] = biological target: T1, endogenous Cdon of C2C12 cells (mouse (endogenous in C2C12)); assay: co-IP; endogenous proteins; C2C12 cells differentiated for 4 days; lysate immunoprecipitated with anti-Cdon-C or control antibody, immunoblot with anti-ZSWIM8 and anti-Cdon-C
[2] = biological target: 3 × FLAG-tagged ZSWIM8, stably expressed in C2C12 cells (human) (UniProt A7E2V4); assay: co-IP; C2C12 cells stably expressing 3 × FLAG-ZSWIM8, with or without differentiation for 1 or 2 days; lysate immunoprecipitated with anti-FLAG antibody, immunoblot with anti-Cdon-N, Cdon-C, Bnip-2, JLP, FLAG or Cul2 antibody
[3] = biological target: 3 × FLAG-tagged ZSWIM8 (zinc finger SWIM type containing 8), expressed in HEK293T cells (human) (UniProt A7E2V4); assay: co-IP; HEK293T cells co-transfected with 3 × FLAG-ZSWIM8 and non-tagged Cdon (FL or mutants), cultured 2 days; lysate (50 mM Tris-HCl pH 7.4, 150 mM NaCl, 1% Triton X-100) immunoprecipitated with anti-FLAG antibody and Protein A Sepharose at 4 °C, immunoblot with anti-Cdon-N

| Molecule | binding [2] | other results |
| --- | --- | --- |
| endogenous ZSWIM8 of C2C12 cells (from UniProt Q3UHH1 1-1832) |  | binding [1]: binds |
| Cullin 2 (Cul2), endogenous in C2C12 cells (from UniProt Q9D4H8 1-745) | binds |  |
| BCL2 adenovirus E1B 19 kDa interacting protein 2 (Bnip-2), endogenous in C2C12 cells (protein, UniProt O54940 1-326) MEGVELKEEWQDEDFPIPLPEDDSIEADTLDGTDPDRQPGSLEVNGNKVRKKLMAPDISLTLDPGEDSLWSDDLDEAGEVDLEGLDTPSENSDEFEWEDDLPKPKTTEVIRKGSITEYTATEEKGDGRRWRMFRIGEQDHRVDMKAIEPYKKVISHGGYYGDGLNAIVVFAVCFMPESGQPNYRYLMDNLFKYVIGTLELLVAENYMIIYLNGATTRRKMPSLGWLRRCYQQIDRRLRKNLKSLIIVHPSWFIRTLLAVTRPFISSKFSQKIRYVFNLAELAELVPMEYVGIPECIKQYEEEKFKKRQKRVDQELNGKQEPPKSEQ | binds |  |
| c-Jun NH2-terminal kinase (JNK)-associated leucine zipper protein (JLP), endogenous in C2C12 cells (protein, UniProt Q58A65 1-1321) MELEDGVVYQEEPGGSGAVMSERVSGLAGSIYREFERLIGRYDEEVVKELMPLVVAVLENLDSVFAQDQEHQVELELLRDDNEQLITQYEREKALRKHAEEKFIEFEDSQEQEKKDLQTRVESLESQTRQLELKAKNYADQISRLEEREAELKKEYNALHQRHTEMIHNYMEHLERTKLHQLSGSDQLEATAHSRIRKERPISLGIFPLPAGDGLLTPDTQKGGETPGSEQWKFQELSQPRSHTSLKVSHSPEPPKAVEQEDELSDISQGGSKATTPASTANSDVSAIPPDTPSKEDNEGFVKGTDTSNKSEISKHIEVQVAQETRNVSTESGENEEKSEVQAIIESTPELDMDKDLSGYKGSSTPTKGIENKAFDRNTESLFEELSSAGSGLIGDVDEGADLLGMGREVENLILENTQLLETKNALNVVKNDLIAKVDELTCEKDVLQGELEAVKQAKLKLEDKNRELEEELRKARAEAEDARQKAKDDDDSDIPTAQRKRFTRVEMARVLMERNQYKERLMELQEAVRWTEMIRASRENPAMQEKKRSSIWQFFSRLFSSSSNATKKPEPPVNLKYNAPTSHVTPSVKKRSSTLSQLPGDKSKAFDFLSEETEASLASRREQKREQYRQVKAHVQKEDGRVQAFGWSLPQKYKQVANGQGETKMKNLPVPVYLRPLDEKDASMKLWCAVGVNLSGGKTRDGGSVVGASVFYKDIAGLDTEGSKQRSASQSSLDKLDQELKEQQKEFKNQEELSSQVWICTSTHSTTKVIIIDAVQPGNILDSFTVCNSHVLCIASVPGARETDYPAGEELSESGQVDKASLCGSMTSNSSAEMDSLLGGITVVGCSTEGLTGAATSPSTNGASPVIEKPPEMETENSEVDENIPTAEEATEATEGNAGSTEDTVDISQPGVYTEHVFTDPLGVQIPEDLSPVFQSSNDSDVYKDQISVLPNEQDLAREEAQKMSSLLPTMWLGAQNGCLYVHSSVAQWRKCLHSIKLKDSILSIVHVKGIVLVALADGTLAIFHRGVDGQWDLSNYHLLDLGRPHHSIRCMTVVHDKVWCGYRNKIYVVQPKAMKIEKSFDAHPRKESQVRQLAWVGDGVWVSIRLDSTLRLYHAHTYQHLQDVDIEPYVSKMLGTGKLGFSFVRITALMVSCNRLWVGTGNGVIISIPLTETNKTSGTPGNRPGSVIRVYGDENSDKVTPGTFIPYCSMAHAQLCFHGHRDAVKFFVAVPGQVISPQSSSGGADLTADKAGSSAQEPSSQTPLKSMLVISGGEGYIDFRMGDEGGESELLGEDLPLEPSVTKAERSHLIVWQVMCGNE | binds |  |
| Cdon-Δ1043-1073, which lacks amino acids 1043–1073 (receptor, UniProt Q32MD9) DLAPYFISEPLSAVQKLGRPVVLHCSAKPVTARISWLHNGKRLDRNTEQIKIHRGTLTILSLNPSLSGCYQCVANNSVGAVVSGPATVSAAALGDFDSSTMHVITAEEKNTGFIGCRVPESNPKAEVRYKIRGKWLKHSTGNYIILPSGNLQVLNVSSKDKGSYKCAAYNPVTSELKVEPTGRKLLVSRPSSNGFHILHPALSQALAVLPHSPVTLECVVSGVPASQVYWLKDGQDAVAGSNWRRLYSHLATASIDPADSGNYSCVVGNKSGDVKHVTYMVNVLEHASISKGLHDQKVSLGATVHFTCDVHGNPAPNRTWFHNAQPIHPSSRHLTEGNVLKITRVVMEDSGLYQCVADNGIGFMQSTGRLQIEQDSGWKPVIVTAPANIEVMDGDFVTLSCNATGVPVPVIHWYGRHGLITSHPSQVLRSKPRKSHLFRPGDLDLEPVYLIMSQAGSSSLSIQAVTLEHAGKYTCEATNKHGSTQSEAFLTVVPFETNTKAESVTPSEASQNDERDPQDGSESSLLNLFPVKVHPSGVELPAERNASVPDAPNILSPPQTHMPDTYNLVWRAGRDGGMPINAYFVKYRKLDDGSGAVGSWHTVRVPGSENELHLTELEPSSLYEVLMVARSAVGEGQPAMLTFRTSKEKMASSKNTQASFPPVGVPKRPVTAEASNSNFGVVLTDSSRHSGVPEAPDRPTISMASETSVYVTWIPRANGGSPITAFKVEYKRMRTSDWLVAAEDIPPSKLSVEVRSLEPGSIYKFRVIAINHYGESFRSSASRPYQVAGFPNRFSNRPITGPHIAYTEAVSDTQIMLKWTYVPSSNNNTPIQGFYIYYRPTDSDNDSDYKRDVVEGSKQWHTIGHLQPETSYDIKMQCFNEGGESEFSNVMICETKVKRVPGASDYPVKELSTPPSSSGNAGNVGPATSPARSSDMLYLIVGCVLGVMVLILMVFIALCLWKSRQQSTIQKYDPPGYLYQGSEINGQMVEYTTLSGAARINGSVHGGFLSNGCSHLHHEFEHPHHLVNSGGVYTAVPQMDPLECINCRNCRNNNRCFTKTNSPLPVVPVVASYPQGGLEMKPLNAMKVPVCPASTVPDHGQLPDDCVKDSVAPIPTQHTCCQDNISDINSDSTEDTAEFSRGDSSGHSEAEDKVFSWNPLILSPVLEDCGEKTARSPPGPPLDGLSVVLQQAQET |  | binding [3]: binds |
| endogenous Cdon of C2C12 cells (receptor, UniProt Q32MD9 25-1250) DLAPYFISEPLSAVQKLGRPVVLHCSAKPVTARISWLHNGKRLDRNTEQIKIHRGTLTILSLNPSLSGCYQCVANNSVGAVVSGPATVSAAALGDFDSSTMHVITAEEKNTGFIGCRVPESNPKAEVRYKIRGKWLKHSTGNYIILPSGNLQVLNVSSKDKGSYKCAAYNPVTSELKVEPTGRKLLVSRPSSNGFHILHPALSQALAVLPHSPVTLECVVSGVPASQVYWLKDGQDAVAGSNWRRLYSHLATASIDPADSGNYSCVVGNKSGDVKHVTYMVNVLEHASISKGLHDQKVSLGATVHFTCDVHGNPAPNRTWFHNAQPIHPSSRHLTEGNVLKITRVVMEDSGLYQCVADNGIGFMQSTGRLQIEQDSGWKPVIVTAPANIEVMDGDFVTLSCNATGVPVPVIHWYGRHGLITSHPSQVLRSKPRKSHLFRPGDLDLEPVYLIMSQAGSSSLSIQAVTLEHAGKYTCEATNKHGSTQSEAFLTVVPFETNTKAESVTPSEASQNDERDPQDGSESSLLNLFPVKVHPSGVELPAERNASVPDAPNILSPPQTHMPDTYNLVWRAGRDGGMPINAYFVKYRKLDDGSGAVGSWHTVRVPGSENELHLTELEPSSLYEVLMVARSAVGEGQPAMLTFRTSKEKMASSKNTQASFPPVGVPKRPVTAEASNSNFGVVLTDSSRHSGVPEAPDRPTISMASETSVYVTWIPRANGGSPITAFKVEYKRMRTSDWLVAAEDIPPSKLSVEVRSLEPGSIYKFRVIAINHYGESFRSSASRPYQVAGFPNRFSNRPITGPHIAYTEAVSDTQIMLKWTYVPSSNNNTPIQGFYIYYRPTDSDNDSDYKRDVVEGSKQWHTIGHLQPETSYDIKMQCFNEGGESEFSNVMICETKVKRVPGASDYPVKELSTPPSSSGNAGNVGPATSPARSSDMLYLIVGCVLGVMVLILMVFIALCLWKSRQQSTIQKYDPPGYLYQGSEINGQMVEYTTLSGAARINGSVHGGFLSNGCSHLHHKGPSGVNGTLSGNINGGLYSAHTNSLTRACVEFEHPHHLVNSGGVYTAVPQMDPLECINCRNCRNNNRCFTKTNSPLPVVPVVASYPQGGLEMKPLNAMKVPVCPASTVPDHGQLPDDCVKDSVAPIPTQHTCCQDNISDINSDSTEDTAEFSRGDSSGHSEAEDKVFSWNPLILSPVLEDCGEKTARSPPGPPLDGLSVVLQQAQET | binds |  |
